# From paper PMC7862700
# Only a part is listed here, and it is no random draw. For part of these data: At the low end of the ranking the order means little. Some of the results follow. For part of these data: Construct or isoform of the protein are uncertain.
# Target: T1, GABPA (UniProt Q06546)
# T1 sequence: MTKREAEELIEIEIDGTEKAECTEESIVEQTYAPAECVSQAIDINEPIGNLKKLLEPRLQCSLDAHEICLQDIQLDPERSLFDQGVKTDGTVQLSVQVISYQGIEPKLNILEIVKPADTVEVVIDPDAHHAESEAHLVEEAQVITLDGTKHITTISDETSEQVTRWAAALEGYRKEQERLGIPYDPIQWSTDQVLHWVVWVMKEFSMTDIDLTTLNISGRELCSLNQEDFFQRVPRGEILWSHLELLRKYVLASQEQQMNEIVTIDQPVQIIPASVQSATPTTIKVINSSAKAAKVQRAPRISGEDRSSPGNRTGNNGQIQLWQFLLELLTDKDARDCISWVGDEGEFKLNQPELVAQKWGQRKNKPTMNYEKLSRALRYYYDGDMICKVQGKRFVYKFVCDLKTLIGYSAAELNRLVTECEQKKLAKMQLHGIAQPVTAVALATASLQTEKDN
# Assay: DAPPL (digital affinity profiling via proximity ligation, sequencing)
# Settings: 10 mM Tris-HCl pH 7.5, 50 mM NaCl, 1 mM DTT, 4% glycerol, room temperature, 30 min; GST-TFs on glutathione beads, 16-mer random dsDNA library, 0.1% …; high values mean tight binding; double strand, one strand shown; scale: fold enrichment (6-mer frequency, TF over GST control)
row,Sequence,binding signal
1,GGCGGG,0.329
2,CCAGTT,0.647
3,GAGTAT,0.59
4,CGCTGA,0.796
5,CGGGCC,0.873
6,AGTAGG,0.603
7,CGTGGC,0.911
8,ACCGCG,0.838
9,GACTAG,0.865
10,GAGGGG,0.518
11,CCTGTC,0.905
12,GAGCGT,0.343
13,GTAGCC,0.909
14,GCGCGG,0.846
15,AGATTG,0.85
16,GTAGGT,0.792
17,TAGAGT,0.877
18,GGAGTG,0.385
19,AGACAT,0.82
20,AGGGTA,0.946

row,Sequence,binding signal
1,GGAGCT,0.596
2,AGGGTG,0.769
3,TCGGCC,0.724
4,CAAAGG,0.907
5,GCACCA,0.899
6,GCATCA,0.815
7,CAGTGA,0.364
8,GGAGAC,0.14
9,AGTGCG,0.683
10,AGTCGT,0.441
11,TCGGGA,0.379
12,GGTTGC,0.801
13,GTCAAT,0.846
14,TTAGAC,0.73
15,AGACGC,0.77
16,ACAACG,0.95
17,CACAGG,0.905
18,CAGAGT,0.662
19,AGCGTG,0.373

# Target: T2, ETS1 (UniProt P14921)
# T2 sequence: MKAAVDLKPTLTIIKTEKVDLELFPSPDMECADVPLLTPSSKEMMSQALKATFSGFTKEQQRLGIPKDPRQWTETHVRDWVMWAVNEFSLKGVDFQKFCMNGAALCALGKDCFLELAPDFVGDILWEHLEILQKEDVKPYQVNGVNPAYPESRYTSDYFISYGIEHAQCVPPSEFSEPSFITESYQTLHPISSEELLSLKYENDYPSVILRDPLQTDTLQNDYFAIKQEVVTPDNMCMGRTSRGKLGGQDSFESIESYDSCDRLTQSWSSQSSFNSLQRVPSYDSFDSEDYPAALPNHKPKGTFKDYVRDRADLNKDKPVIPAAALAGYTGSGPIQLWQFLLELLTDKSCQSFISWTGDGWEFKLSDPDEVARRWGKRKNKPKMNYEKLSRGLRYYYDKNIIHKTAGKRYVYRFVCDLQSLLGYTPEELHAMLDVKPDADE
# Assay: as above
# Settings: 10 mM Tris-HCl pH 7.5, 50 mM NaCl, 1 mM DTT, 4% glycerol, room temperature, 30 min; GST-TFs on glutathione beads, 16-mer random dsDNA library, 0.1% …; high values mean tight binding; double strand, one strand shown; scale: fold enrichment (6-mer frequency, TF over GST control)
row,Sequence,binding signal
1,GGCGGG,0.289
2,CCAGTT,0.623
3,GAGTAT,0.627
4,CGCTGA,0.91
5,CGGGCC,0.724
6,AGTAGG,0.646
7,CGTGGC,0.927
8,ACCGCG,0.868
9,GACTAG,0.735
10,GAGGGG,0.486
11,CCTGTC,0.98
12,GAGCGT,0.352
13,GTAGCC,0.966
14,GCGCGG,0.803
15,AGATTG,0.883
16,GTAGGT,0.804
17,TAGAGT,0.787
18,GGAGTG,0.371
19,AGACAT,0.816
20,AGGGTA,0.915

row,Sequence,binding signal
1,GGAGCT,0.607
2,AGGGTG,0.773
3,TCGGCC,0.749
4,CAAAGG,0.831
5,GCACCA,0.828
6,GCATCA,0.776
7,CAGTGA,0.39
8,GGAGAC,0.14
9,AGTGCG,0.827
10,AGTCGT,0.36
11,TCGGGA,0.39
12,GGTTGC,0.881
13,GTCAAT,0.858
14,TTAGAC,0.846
15,AGACGC,0.695
16,ACAACG,0.979
17,CACAGG,0.904
18,CAGAGT,0.647
19,AGCGTG,0.365

# Target: T3, SPDEF (UniProt O95238)
# T3 sequence: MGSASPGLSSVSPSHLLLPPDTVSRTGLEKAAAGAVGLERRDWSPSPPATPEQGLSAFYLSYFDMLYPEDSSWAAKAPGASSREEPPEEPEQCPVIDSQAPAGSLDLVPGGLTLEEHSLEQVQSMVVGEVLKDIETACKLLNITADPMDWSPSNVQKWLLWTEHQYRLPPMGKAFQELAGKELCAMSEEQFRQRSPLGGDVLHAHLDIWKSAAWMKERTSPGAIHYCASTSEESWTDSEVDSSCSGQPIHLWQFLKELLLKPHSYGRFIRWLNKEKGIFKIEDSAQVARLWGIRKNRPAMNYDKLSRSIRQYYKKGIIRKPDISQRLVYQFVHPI
# Assay: as above
# Settings: 10 mM Tris-HCl pH 7.5, 50 mM NaCl, 1 mM DTT, 4% glycerol, room temperature, 30 min; GST-TFs on glutathione beads, 16-mer random dsDNA library, 0.1% …; high values mean tight binding; double strand, one strand shown; scale: fold enrichment (6-mer frequency, TF over GST control)
row,Sequence,binding signal
1,GGCGGG,0.332
2,CCAGTT,0.582
3,GAGTAT,0.536
4,CGCTGA,0.819
5,CGGGCC,0.752
6,AGTAGG,0.564
7,CGTGGC,0.908
8,ACCGCG,0.835
9,GACTAG,0.781
10,GAGGGG,0.476
11,CCTGTC,0.918
12,GAGCGT,0.345
13,GTAGCC,0.962
14,GCGCGG,0.796
15,AGATTG,0.733
16,GTAGGT,0.778
17,TAGAGT,0.761
18,GGAGTG,0.378
19,AGACAT,0.871
20,AGGGTA,0.813

row,Sequence,binding signal
1,GGAGCT,0.594
2,AGGGTG,0.693
3,TCGGCC,0.69
4,CAAAGG,0.794
5,GCACCA,0.858
6,GCATCA,0.713
7,CAGTGA,0.373
8,GGAGAC,0.14
9,AGTGCG,0.752
10,AGTCGT,0.368
11,TCGGGA,0.372
12,GGTTGC,0.867
13,GTCAAT,0.824
14,TTAGAC,0.893
15,AGACGC,0.659
16,ACAACG,0.913
17,CACAGG,0.853
18,CAGAGT,0.575
19,AGCGTG,0.331
